Assay [1] deals with T1, CD47 on the T cell surface (UniProt Q61735).
T1 sequence (looked up): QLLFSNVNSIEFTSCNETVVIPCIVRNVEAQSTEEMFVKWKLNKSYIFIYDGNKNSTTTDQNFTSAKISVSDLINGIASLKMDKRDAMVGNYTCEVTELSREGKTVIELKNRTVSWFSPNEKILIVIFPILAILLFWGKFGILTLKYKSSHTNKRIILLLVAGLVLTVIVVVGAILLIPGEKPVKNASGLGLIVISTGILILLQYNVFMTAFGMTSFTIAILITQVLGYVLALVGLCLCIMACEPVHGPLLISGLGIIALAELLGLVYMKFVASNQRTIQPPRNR
The assay is described as follows: flow cytometry blocking assay on CAR T cells and bystander T cells; competitor is the fluorescently labeled anti-CD47 mAb. (Flow cytometry measures light scatter and fluorescence of single cells or particles in a stream.)

Assay [2] deals with T1, CD47 on the T cell surface. The assay is described as follows: flow cytometry blocking assay, A12 CAR-P2A-A4 T cells (FIG. 7).
Assay [3] concerns the target T1, CD47 on the T cell surface. The experiment in a line: flow cytometry blocking assay on A12 CAR-P2A-A4Fc T cells (FIG. 17).

These are yes or no findings as the source states them, for the method shown. Some binding calls cover weakened binding; strength is not graded here. Where a sequence is shown, tags or fusion partners need not be part of it.

B1: A4 (anti-CD47 VHH), HA-tagged, secreted by CAR T cells (VHH, not shown: small tags and cut ends)
VHH: QVQLVESGGGLVEPGGSLRLSCAASGIIFKINDMGWYRQAPGKRREWVAASTGGDEAIYRDSVKDRFTISRDAKNSVFLQMNSLKPEDTAVYYCTAVISTDRDGTEWRRYWGQGTQVTVSS
As for B1, the binding entry in assay [1] and in assay [2] was “binds” throughout.

B2: A4-Fc (anti-CD47 VHH A4 fused to an IgG2a Fc domain, with an HA tag) (Fc fusion, not shown: a dimerising Fc or GST; small tags and cut ends)
chain: B1 VHH
Take B2: the binding result in assay [3] is listed as “binds”.
